Reference: publication doi:10.1101/137711
These are yes or no findings as the source states them, for the method shown. Some results given as binding are weak or reduced against the parent protein; the word gives no strength.

Target: T1, Smc4 subunit of condensin, Smc4-StrepII3 (wild-type) (S. cerevisiae) (UniProt Q12267)
T1 sequence: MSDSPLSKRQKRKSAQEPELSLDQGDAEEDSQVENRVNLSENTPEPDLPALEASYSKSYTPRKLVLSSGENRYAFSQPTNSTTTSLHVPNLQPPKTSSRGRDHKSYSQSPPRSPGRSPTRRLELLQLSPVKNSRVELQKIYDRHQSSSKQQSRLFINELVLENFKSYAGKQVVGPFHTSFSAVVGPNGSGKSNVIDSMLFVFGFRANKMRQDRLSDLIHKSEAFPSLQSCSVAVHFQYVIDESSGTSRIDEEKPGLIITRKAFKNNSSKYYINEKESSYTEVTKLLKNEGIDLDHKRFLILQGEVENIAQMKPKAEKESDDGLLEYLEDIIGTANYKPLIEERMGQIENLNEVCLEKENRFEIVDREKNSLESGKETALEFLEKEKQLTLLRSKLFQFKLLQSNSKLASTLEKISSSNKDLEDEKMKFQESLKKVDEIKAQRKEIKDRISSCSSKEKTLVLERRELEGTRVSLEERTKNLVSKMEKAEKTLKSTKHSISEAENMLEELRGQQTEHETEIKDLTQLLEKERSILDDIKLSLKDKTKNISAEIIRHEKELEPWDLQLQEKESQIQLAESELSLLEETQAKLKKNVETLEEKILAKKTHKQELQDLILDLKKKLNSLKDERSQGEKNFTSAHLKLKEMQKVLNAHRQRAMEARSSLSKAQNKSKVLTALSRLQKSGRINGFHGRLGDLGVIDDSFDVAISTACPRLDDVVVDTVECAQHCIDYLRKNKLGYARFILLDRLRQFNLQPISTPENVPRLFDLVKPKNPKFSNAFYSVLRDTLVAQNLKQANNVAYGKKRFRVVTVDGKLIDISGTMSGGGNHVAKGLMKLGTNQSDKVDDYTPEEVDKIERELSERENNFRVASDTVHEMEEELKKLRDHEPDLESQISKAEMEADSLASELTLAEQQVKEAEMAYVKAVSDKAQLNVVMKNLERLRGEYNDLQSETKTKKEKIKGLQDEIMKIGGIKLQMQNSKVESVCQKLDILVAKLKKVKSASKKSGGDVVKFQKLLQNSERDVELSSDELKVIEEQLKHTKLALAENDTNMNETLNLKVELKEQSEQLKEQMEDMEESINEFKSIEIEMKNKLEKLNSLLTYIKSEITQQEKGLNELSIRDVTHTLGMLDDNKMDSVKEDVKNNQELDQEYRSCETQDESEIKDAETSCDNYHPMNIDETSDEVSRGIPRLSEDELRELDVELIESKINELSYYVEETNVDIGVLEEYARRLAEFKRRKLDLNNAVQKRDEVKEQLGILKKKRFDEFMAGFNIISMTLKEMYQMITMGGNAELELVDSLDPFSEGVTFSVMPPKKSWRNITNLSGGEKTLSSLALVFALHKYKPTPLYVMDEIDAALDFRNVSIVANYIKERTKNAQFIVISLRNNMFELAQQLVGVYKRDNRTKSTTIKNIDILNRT
Experiment: tandem affinity co-purification + SEC

- binding: binds
B1: Ycs4 HEAT-repeat subunit of condensin (protein, UniProt Q06156 1-1176)
chain: MSGFSLSEYLTKFQTTDRESYPRLQDPSRELNVIIDQLAVSPEQIDASPDSLEALIDLCHDFPHLTPKLQTQLSYLISSSLSNLSKDIKANLSSNVNFTEIGGLIPQWKRHLEEYGYLIQVLLTFLQDELHKVSSQSTNLNRSAKNSKNDSANVELFKRDCNQMENLLESITKLLEINLSKIFQTTPEKDLFIGLFTRPLFVLLEIEPVTKVSSLKMFIQRILAMCVKNHGQSSSIQSSLMTNLTYFLHLSVFNAELLKLLNDEYNYPQLTEDILKEISTRVFNAKDTTGPKAISNFLIKLSELSPGIMLRQMNLVITLLNNSSITLRCSVVEACGNIVAELAQDPQTMEHYKQQIAVLIELLEERFQDSNPYVRTKAIQGCSKICDLSSKFNKSKAKFTSLAVRSLQDRSSLVRRNSVKLLSKLLLKHPFKAIHGSQLRLSEWEEYLKGSESQLNSTLKKVESQETLNDTIERSLIEEEVEQDEGQCRTELEGSFNKSAELSRIENEVENINATNTSVLMKLKLMIVYYKDAISFIKEIHKSIELISNLLFSKNRNEVLESMDFLVLADAFDIELSEFGIKKMLHLVWMKGTNDEGTSISVHLIECYKQLFLTAPDSCNMQEKAAHIAKNLINLSIGASIADLASLEQLLGMMYEQKLIDQHVINILWAIYNSASKASMQKEQNVNNRDSEKGFSKEQIHGSIIILGMLSLADNEIALKGLESLLNIGLGAVGLKDLTLCRYSCLALERMVPKRSTIITKAINQELEDVAVKKLYAIIINYTKDNEYYPMCEQALSALFTISSKPDILATDLIREKTMMTFGKPEEEDSILSLEQSSRVVSLSQLLFIVGQVAIKTLVYLEKCEAEFKKRKIEAETRNGKVKNQGADVTNTTQDNGGDKELEMIGGTNEDDFTDAIQFVKENELLFGEKSILGKFCPIVEEIVSNSSRFSDPMLQRTATLCLEKLMCLSSKYCEKSLPLLITVMEKSPDPTIRSNAVLGLGDMAVCFNNLVDENTDYLYRRLHDENLMVQRTCLMTVTFLILAGQVKVKGQLGEMAKCLDNPDQGISDMCRLFFTELASKDNAIYNGFIDIFSNLSSDDLLGKESFKKIIKFLLTFIDKERHQKQLNEKLVGRLRKCETQKQWDDIAFVLNNLPYKNEDVTALLEQGFKVVSAKE
